Experimental data reported in PubChem BioAssay AID330 (DTP/NCI, 2004).
The list shows only some results of the screen, not a fair sample: it is rich in T/C values a quarter to a half above the control, in often repeated tests (any T/C) and in doses without a T/C. Other doses and runs of a compound stand elsewhere. T/C: endpoint of the treated group in % of that of the vehicle group. Some entries give survivors of the animals treated and no T/C: the source holds a T/C of zero for them, seemingly a mark for toxic or unscored doses. Some doses without a T/C left all or most animals alive at the check, yet need not have been tolerated: the source hardly ever lists a survival T/C far under the control, and the zero likely stands for such cases as well. Survivors were counted at the toxicity check, usually on the fifth day, unless a day is given; later deaths do not show. Schedule codes are those of the source, taken here to give the interval after Q, in days (D) or hours (H), and the number of doses after X. Some entries hold several experiments; their values stand side by side, smallest first. For survival time, the PubChem record calls one and a half times the control and up active, and a quarter to a half above the control has no call in these data; cut-offs in other NCI protocols can differ. Marks such as (2×) say how often a value occurs here. Some T/C values are followed by the survivors on the day toxicity was checked, most often the fifth; where none is given, no animal had died by that day.

Test system: P388 leukemia ip, CD2F1 mice, survival T/C
Test: NCI In Vivo Anticancer Drug Screen. Data for tumor model P388 Leukemia (intraperitoneal) in CD2F1 (CDF1) mice
Settings: T/C endpoint: median survival time, higher T/C = longer survival
[1] = dose: 200.0 mg/kg/injection, schedule: Q01DX009 (ip), vehicle: Klucel (hydroxypropylcellulose) (HPC)
[2] = dose: 100.0 mg/kg/injection, schedule: Q01DX009 (ip), vehicle: saline
[3] = dose: 200.0 mg/kg/injection, schedule: Q01DX009 (ip), vehicle: saline

CCn1c2ccccc2n2c(=O)c(Cc3ccccc3)c(C)c(C#N)c12
survivor count (dose: 60.0 mg/kg/injection, schedule: Q01DX005 (ip), vehicle: saline with Tween-80): 6 of 6
survivor count (dose: 120.0 mg/kg/injection, schedule: Q01DX005 (ip), vehicle: saline with Tween-80): 6 of 6
survivor count (dose: 240.0 mg/kg/injection, schedule: Q01DX005 (ip), vehicle: saline with Tween-80): 6 of 6

COc1ccc(S(=O)(=O)N2OC2c2ccccc2)cc1 (stereo not drawn)
survivor count [1]: 3 of 6

CC1Nc2nc(N)[nH]c(=O)c2NC1C (stereo not drawn)
survivor count (dose: 25.0 mg/kg/injection, schedule: Q01DX005 (ip), vehicle: saline): 4 of 6

O=C(Nc1ccccc1C(=O)Nc1ccccc1C(=O)O)c1cccnc1
survivor count (dose: 400.0 mg/kg/injection, schedule: Q04DX002 (ip), vehicle: saline with Tween-80): 3 of 6

CCOC1NC(=O)Oc2ccccc21 (stereo not drawn)
T/C (dose: 25.0 mg/kg/injection, schedule: Q01DX005 (ip), vehicle: Klucel (hydroxypropylcellulose) (HPC)): 98 (2×), 100, 103, 109 % of control
T/C (dose: 50.0 mg/kg/injection, schedule: Q01DX005 (ip), vehicle: Klucel (hydroxypropylcellulose) (HPC)): 96 (2×), 105, 113 % of control
T/C (dose: 100.0 mg/kg/injection, schedule: Q01DX005 (ip), vehicle: Klucel (hydroxypropylcellulose) (HPC)): 99, 108, 113, 124 % of control
T/C (dose: 200.0 mg/kg/injection, schedule: Q01DX005 (ip), vehicle: Klucel (hydroxypropylcellulose) (HPC), evaluated on day 23): 110 % of control [5 of 6 alive]
T/C (dose: 200.0 mg/kg/injection, schedule: Q01DX005 (ip), vehicle: Klucel (hydroxypropylcellulose) (HPC), evaluated on day 30): 111, 114, 116, 137 % of control
T/C [1]: 125, 131, 148 % of control
survivor count (dose: 333.0 mg/kg/injection, schedule: Q01DX005 (ip), vehicle: Klucel (hydroxypropylcellulose) (HPC)): 2 of 6
survivor count (dose: 400.0 mg/kg/injection, schedule: Q01DX005 (ip), vehicle: Klucel (hydroxypropylcellulose) (HPC)): 0 of 6, 1 of 6, 3 of 6
survivor count (dose: 400.0 mg/kg/injection, schedule: Q01DX009 (ip), vehicle: Klucel (hydroxypropylcellulose) (HPC)): 2 of 6
survivor count (dose: 556.0 mg/kg/injection, schedule: Q01DX005 (ip), vehicle: Klucel (hydroxypropylcellulose) (HPC)): 0 of 6

CC([OH2+])CNCCN.CC([OH2+])CNCCN.O=[N+]([O-])[O-].[Cu+2] (stereo not drawn)
survivor count [2]: 0 of 6
survivor count [3]: 0 of 6

ClC1=C(Cl)N(C2=NCCC2)CC1
survivor count (dose: 50.0 mg/kg/injection, schedule: Q01DX009 (ip), vehicle: Klucel (hydroxypropylcellulose) (HPC)): 0 of 6
survivor count (dose: 100.0 mg/kg/injection, schedule: Q01DX009 (ip), vehicle: Klucel (hydroxypropylcellulose) (HPC)): 0 of 6
survivor count [1]: 0 of 6

S=C(NC12CC3CC(CC(C3)C1)C2)[NH][Sn]([c]1ccccc1)([c]1ccccc1)[c]1ccccc1
survivor count (dose: 25.0 mg/kg/injection, schedule: Q01DX009 (ip), vehicle: saline with Tween-80): 2 of 6
survivor count (dose: 50.0 mg/kg/injection, schedule: Q01DX009 (ip), vehicle: saline with Tween-80): 0 of 6

c1ccc2c3c(ccc2c1)CC1CCCN1C3 (stereo not drawn)
survivor count (dose: 400.0 mg/kg/injection, schedule: Q04DX003 (ip), vehicle: Klucel (hydroxypropylcellulose) (HPC)): 3 of 6

BrCc1cn2ccccc2n1
survivor count (dose: 50.0 mg/kg/injection, schedule: Q01DX009 (ip), vehicle: saline): 6 of 6
survivor count [2]: 5 of 6
survivor count [3]: 2 of 6

CN=P1(NC)NP(=NC)(NC)NP(=NC)(NC)NP(=NC)(NC)N1.[Cl-].[Cl-].[Cl-].[Cl-].[Pt+2] (stereo not drawn)
survivor count (dose: 200.0 mg/kg/injection, schedule: Q04DX003 (ip), vehicle: saline with Tween-80): 0 of 6

COc1cc2cc3c4cc(OC)c(OC)cc4cc(C)[n+]3cc2cc1OC
T/C (dose: 25.0 mg/kg/injection, schedule: Q01DX009 (ip), vehicle: other): 139 % of control
T/C (dose: 50.0 mg/kg/injection, schedule: Q01DX009 (ip), vehicle: other): 134 % of control
T/C (dose: 100.0 mg/kg/injection, schedule: Q01DX009 (ip), vehicle: other): 134 % of control
T/C (dose: 200.0 mg/kg/injection, schedule: Q01DX009 (ip), vehicle: other): 139 % of control
T/C (dose: 200.0 mg/kg/injection, schedule: Q01DX009 (ip), vehicle: water): 141 % of control
T/C (dose: 400.0 mg/kg/injection, schedule: Q01DX009 (ip), vehicle: other): 131 % of control [5 of 6 alive]
T/C (dose: 400.0 mg/kg/injection, schedule: Q01DX009 (ip), vehicle: water): 144 % of control

C/C(=N\NC(=S)N1CCCCC1C)c1nccs1 (stereo not drawn)
T/C (dose: 50.0 mg/kg/injection, schedule: Q01DX005 (ip), vehicle: saline with Tween-80): 130 % of control
survivor count (dose: 100.0 mg/kg/injection, schedule: Q01DX005 (ip), vehicle: saline with Tween-80): 4 of 6 and 5 of 6
survivor count (dose: 200.0 mg/kg/injection, schedule: Q01DX005 (ip), vehicle: saline with Tween-80): 0 of 6
